According to paper PMC8384837:
Positions count from the first letter of the chain named. The list shows a part of the results. For part of these data: At the low end of the ranking, values are background and their order means little.

Tests used:
Settings in all cases: yeast three-hybrid, YBZ-1, SC-Leu-His + 0.5 mM 3-AT, 4 days
[1] = target: T1, PUM1 PUF domain R2-VFQ R3-THE R4-TFR N899V + Y900F + C935T + R936H + Q939E + N971T + H972F + Q975R (UniProt Q14671)
T1 sequence: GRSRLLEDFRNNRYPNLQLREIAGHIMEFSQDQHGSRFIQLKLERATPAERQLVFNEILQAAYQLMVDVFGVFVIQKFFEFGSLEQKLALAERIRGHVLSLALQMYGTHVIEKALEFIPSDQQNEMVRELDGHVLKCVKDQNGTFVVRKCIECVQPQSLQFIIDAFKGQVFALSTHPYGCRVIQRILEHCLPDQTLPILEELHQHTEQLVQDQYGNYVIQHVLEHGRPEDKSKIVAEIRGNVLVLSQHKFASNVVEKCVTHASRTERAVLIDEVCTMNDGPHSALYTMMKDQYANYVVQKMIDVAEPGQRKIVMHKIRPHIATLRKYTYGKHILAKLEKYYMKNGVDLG

[2] = target: T2, PUM1 PUF domain R2-ARP N899A + Y900R + Q903P (Homo sapiens) (UniProt Q14671)
T2 sequence: T1 sequence with V72A, F73R, Q76P, T108C, H109R, E112Q, T144N, F145H, R148Q

[3] = target: T3, PUM1 PUF domain R2-AWS N899A + Y900W + Q903S (UniProt Q14671)
T3 sequence: T1 sequence with V72A, F73W, Q76S, T108C, H109R, E112Q, T144N, F145H, R148Q

[4] = target: T4, PUM1 PUF domain R2-AYW N899A + Q903W (UniProt Q14671)
T4 sequence: T1 sequence with V72A, F73Y, Q76W, T108C, H109R, E112Q, T144N, F145H, R148Q

[5] = target: T5, PUM1 PUF domain R2-CWP N899C + Y900W + Q903P (Homo sapiens) (UniProt Q14671)
T5 sequence: T1 sequence with V72C, F73W, Q76P, T108C, H109R, E112Q, T144N, F145H, R148Q

[6] = target: T6, PUM1 PUF domain R2-DWC N899D + Y900W + Q903C (UniProt Q14671)
T6 sequence: T1 sequence with V72D, F73W, Q76C, T108C, H109R, E112Q, T144N, F145H, R148Q

[7] = target: T7, PUM1 PUF domain R2-DWL N899D + Y900W + Q903L (UniProt Q14671)
T7 sequence: T1 sequence with V72D, F73W, Q76L, T108C, H109R, E112Q, T144N, F145H, R148Q

[8] = target: T8, PUM1 PUF domain R2-FWW N899F + Y900W + Q903W (UniProt Q14671)
T8 sequence: T1 sequence with V72F, F73W, Q76W, T108C, H109R, E112Q, T144N, F145H, R148Q

[9] = target: T9, PUM1 PUF domain R2-GWF N899G + Y900W + Q903F (Homo sapiens) (UniProt Q14671)
T9 sequence: T1 sequence with V72G, F73W, Q76F, T108C, H109R, E112Q, T144N, F145H, R148Q

[10] = target: T10, PUM1 PUF domain R2-GWY N899G + Y900W + Q903Y (Homo sapiens) (UniProt Q14671)
T10 sequence: T1 sequence with V72G, F73W, Q76Y, T108C, H109R, E112Q, T144N, F145H, R148Q

[11] = target: T11, PUM1 PUF domain R2-KFG N899K + Y900F + Q903G (Homo sapiens) (UniProt Q14671)
T11 sequence: T1 sequence with V72K, Q76G, T108C, H109R, E112Q, T144N, F145H, R148Q

[12] = target: T12, PUM1 PUF domain R2-LFA N899L + Y900F + Q903A (UniProt Q14671)
T12 sequence: T1 sequence with V72L, Q76A, T108C, H109R, E112Q, T144N, F145H, R148Q

[13] = target: T13, PUM1 PUF domain R2-LFC N899L + Y900F + Q903C (Homo sapiens) (UniProt Q14671)
T13 sequence: T1 sequence with V72L, Q76C, T108C, H109R, E112Q, T144N, F145H, R148Q

[14] = target: T14, PUM1 PUF domain R2-LFI N899L + Y900F + Q903I (UniProt Q14671)
T14 sequence: T1 sequence with V72L, Q76I, T108C, H109R, E112Q, T144N, F145H, R148Q

[15] = target: T15, PUM1 PUF domain R2-LFL N899L + Y900F + Q903L (Homo sapiens) (UniProt Q14671)
T15 sequence: T1 sequence with V72L, Q76L, T108C, H109R, E112Q, T144N, F145H, R148Q

[16] = target: T16, PUM1 PUF domain R2-LFS N899L + Y900F + Q903S (Homo sapiens) (UniProt Q14671)
T16 sequence: T1 sequence with V72L, Q76S, T108C, H109R, E112Q, T144N, F145H, R148Q

[17] = target: T17, PUM1 PUF domain R2-LFV N899L + Y900F + Q903V (Homo sapiens) (UniProt Q14671)
T17 sequence: T1 sequence with V72L, Q76V, T108C, H109R, E112Q, T144N, F145H, R148Q

[18] = target: T18, PUM1 PUF domain R2-LWD N899L + Y900W + Q903D (Homo sapiens) (UniProt Q14671)
T18 sequence: T1 sequence with V72L, F73W, Q76D, T108C, H109R, E112Q, T144N, F145H, R148Q

[19] = target: T19, PUM1 PUF domain R2-LWF N899L + Y900W + Q903F (Homo sapiens) (UniProt Q14671)
T19 sequence: T1 sequence with V72L, F73W, Q76F, T108C, H109R, E112Q, T144N, F145H, R148Q

[20] = target: T20, PUM1 PUF domain R2-LWM N899L + Y900W + Q903M (Homo sapiens) (UniProt Q14671)
T20 sequence: T1 sequence with V72L, F73W, Q76M, T108C, H109R, E112Q, T144N, F145H, R148Q

[21] = target: T21, PUM1 PUF domain R2-LWY N899L + Y900W + Q903Y (UniProt Q14671)
T21 sequence: T1 sequence with V72L, F73W, Q76Y, T108C, H109R, E112Q, T144N, F145H, R148Q

[22] = target: T22, PUM1 PUF domain R2-NRG Y900R + Q903G (UniProt Q14671)
T22 sequence: T1 sequence with V72N, F73R, Q76G, T108C, H109R, E112Q, T144N, F145H, R148Q

[23] = target: T23, PUM1 PUF domain R2-NRW Y900R + Q903W (UniProt Q14671)
T23 sequence: T1 sequence with V72N, F73R, Q76W, T108C, H109R, E112Q, T144N, F145H, R148Q

[24] = target: T24, PUM1 PUF domain R2-RTQ N899R + Y900T (Homo sapiens) (UniProt Q14671)
T24 sequence: T1 sequence with V72R, F73T, T108C, H109R, E112Q, T144N, F145H, R148Q

[25] = target: T25, PUM1 PUF domain R2-SWW N899S + Y900W + Q903W (UniProt Q14671)
T25 sequence: T1 sequence with V72S, F73W, Q76W, T108C, H109R, E112Q, T144N, F145H, R148Q

[26] = target: T26, PUM1 PUF domain R2-TFG N899T + Y900F + Q903G (UniProt Q14671)
T26 sequence: T1 sequence with V72T, Q76G, T108C, H109R, E112Q, T144N, F145H, R148Q

[27] = target: T27, PUM1 PUF domain R2-VFR N899V + Y900F + Q903R (UniProt Q14671)
T27 sequence: T1 sequence with Q76R, T108C, H109R, E112Q, T144N, F145H, R148Q

[28] = target: T28, PUM1 PUF domain R2-VWP N899V + Y900W + Q903P (Homo sapiens) (UniProt Q14671)
T28 sequence: T1 sequence with F73W, Q76P, T108C, H109R, E112Q, T144N, F145H, R148Q

[29] = target: T29, PUM1 PUF domain R2-VWW N899V + Y900W + Q903W (Homo sapiens) (UniProt Q14671)
T29 sequence: T1 sequence with F73W, Q76W, T108C, H109R, E112Q, T144N, F145H, R148Q

[30] = target: T30, PUM1 PUF domain R2-VYP N899V + Q903P (UniProt Q14671)
T30 sequence: T1 sequence with F73Y, Q76P, T108C, H109R, E112Q, T144N, F145H, R148Q

Sequence “GGCUAGAACUAGUGGAUCCCCCGGCGCCCGGCGGCUCGAGCCCGGGUAAGCGUUUCUUGUCUGCAUGCCGCCGGGCGCCAUGCCUGCAGGUCGACUCUAGAAAACAUG” has a binding signal (log2 enrichment (interaction score)) [1] of -5.63.
“GGCUAGAACUAGUGGAUCCCCCGGCGCCCGGCGGCUCGAGCCCGGGUAAGUGUAAAGAGUCUGCAUGCCGCCGGGCGCCAUGCCUGCAGGUCGACUCUAGAAAACAUG” was tested, and the binding signal (log2 enrichment (interaction score)) [2] was -1.44, the binding signal (log2 enrichment (interaction score)) [3] was < -7.71 and the binding signal (log2 enrichment (interaction score)) [4] was < -8.03. The binding signal (log2 enrichment (interaction score)) [5] was -0.53, the binding signal (log2 enrichment (interaction score)) [6] was < -6.39 and the binding signal (log2 enrichment (interaction score)) [7] was < -6.68. The binding signal (log2 enrichment (interaction score)) [8] was < -5.79, the binding signal (log2 enrichment (interaction score)) [9] was -0.55 and the binding signal (log2 enrichment (interaction score)) [10] was -0.78. The binding signal (log2 enrichment (interaction score)) [11] was -4.2, the binding signal (log2 enrichment (interaction score)) [12] was -8.08 and the binding signal (log2 enrichment (interaction score)) [13] was -0.35. For the same sequence, the binding signal (log2 enrichment (interaction score)) [14] was < -5.87, the binding signal (log2 enrichment (interaction score)) [15] was 0.08 and the binding signal (log2 enrichment (interaction score)) [16] was -0.42. For the same sequence, the binding signal (log2 enrichment (interaction score)) [17] was -2.82, the binding signal (log2 enrichment (interaction score)) [18] was 1.03 and the binding signal (log2 enrichment (interaction score)) [19] was -3.98. For the same sequence, the binding signal (log2 enrichment (interaction score)) [20] was < -5.75, the binding signal (log2 enrichment (interaction score)) [21] was < -6.17 and the binding signal (log2 enrichment (interaction score)) [22] was < -6.59. For the same sequence, the binding signal (log2 enrichment (interaction score)) [23] was < -5.95, the binding signal (log2 enrichment (interaction score)) [24] was -3.93 and the binding signal (log2 enrichment (interaction score)) [25] was < -6.3. For the same sequence, the binding signal (log2 enrichment (interaction score)) [26] was < -6.41, the binding signal (log2 enrichment (interaction score)) [27] was < -7 and the binding signal (log2 enrichment (interaction score)) [28] was -2.51. The binding signal (log2 enrichment (interaction score)) [29] was -4.8 and the binding signal (log2 enrichment (interaction score)) [30] was < -7.52.
With “GGCUAGAACUAGUGGAUCCCCCGGCGCCCGGCGGCUCGAGCCCGGGUAAGAUGCAGUAGUCUGCAUGCCGCCGGGCGCCAUGCCUGCAGGUCGACUCUAGAAAACAUG” the binding signal (log2 enrichment (interaction score)) [1] was -5.77.
“GGCUAGAACUAGUGGAUCCCCCGGCGCCCGGCGGCUCGAGCCCGGGUAAGCGUACCAGGUCUGCAUGCCGCCGGGCGCCAUGCCUGCAGGUCGACUCUAGAAAACAUG” gave a binding signal (log2 enrichment (interaction score)) [1] of -4.46.
“GGCUAGAACUAGUGGAUCCCCCGGCGCCCGGCGGCUCGAGCCCGGGUAAGUUAACUUCGUCUGCAUGCCGCCGGGCGCCAUGCCUGCAGGUCGACUCUAGAAAACAUG” was tested, and the binding signal (log2 enrichment (interaction score)) [1] was -5.26.
